Laboratory results from PubChem BioAssay AID493014 (National Center for Advancing Translational Sciences (NCATS), 2011).
Where “and” joins values, the source holds several entries; their conditions need not be identical. Identical values can stand only once. This is one part of the list. The main result of the screen is listed elsewhere. These columns were measured beside it and carry no call. Most of these compounds were active or inconclusive in the main read-out, so they are no random draw. Potencies come from curve fits of mixed quality, noted in brackets.

Experiment: qHTS Assay to Find Inhibitors of Chronic Active B-Cell Receptor Signaling
Conditions: ABC-DLBCL IkBa-CBG/CBR reporter, luminescence ratio (green luciferase fused to IkBa over red control in TMD8 lymphoma cells), 4 h
In short: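 Concentration-response series (up to 46 uM) were applied to TMD8 dual-reporter cells for 4 h at 37C with doxycycline. Green/red ratio, after filter-overlap correction, defined %Activity; red signal alone was normalised to basal cells and zero luminescence.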

[1] = measured here: CBR red luminescence, cell number
[2] = measured here: IkBa-CBG green luminescence

Row | Compound | AC50 [1] | AC50 [2]
1 | COc1ccc(OC)c(NC(=O)CSc2nc3ccccc3c(=O)n2CCNC(C)=O)c1 | 3.26 µM [rising, full curve, poor fit] | 
2 | CN(CC(=O)Nc1ccccc1C(F)(F)F)C(=O)c1cccc(-n2cccc2)c1 | 6.51 µM [rising, full curve, poor fit] | 
3 | CCc1ccc(/C=C/c2c([N+](=O)[O-])c(=O)n(C)c(=O)n2C)cc1 | 10 µM [falling, partial curve, poor fit] | 
4 | CC(=O)Nc1ccc(NC(=O)CSc2nnc(-c3cc(C)[nH]n3)n2N)cc1 | 35.5 µM [rising, single point] | 
5 | CCOc1ccc(C)cc1S(=O)(=O)n1cnc2ccccc21 | 1.26 µM [rising, full curve, poor fit] | 
6 | CN1C(=O)C(O)(CC(=O)c2ccccc2O)c2cc(Br)ccc21 (configuration not stated) | 22.4 µM [rising, single point] and 6.51 µM [falling, partial curve, poor fit] | 17.8 µM [falling, single point] and 23.1 µM [falling, single point]
7 | CN(C)c1nc(NCc2ccccc2)nc(N/N=C/c2ccccc2F)n1 | 2.51 µM [rising, single point] | 
8 | CCOCCCNC1=C(Cl)C(=O)c2ccccc2C1=O |  | 14.1 µM [rising, partial curve, poor fit]
9 | Cc1cccnc1NC(=O)c1ccc2nc(N)sc2c1 | 0.116 µM [falling, full curve, poor fit] | 
10 | CC(=O)NC(CC(=O)Nc1nc(C)cs1)c1ccccc1 (configuration not stated) | 10 µM [rising, partial curve, poor fit] | 
11 | CCOc1ccc(Br)cc1C1=CC(=O)C[C@H](c2ccc(OC)cc2)C1 | 3.66 µM [rising, full curve] | 20.6 µM [falling, single point]
12 | CC1(C)CC(=O)C2=C(C1)O[C@@]1(CCCCN3C(=O)c4ccccc4C3=O)Cc3cc(C#N)ccc3C2O1 |  | 2.82 µM [rising, partial curve, poor fit]
13 | CCCCn1nc(C(=O)NCc2ccccc2CN2CCCC2)c2ccccc2c1=O | 0.92 µM [falling, partial curve, poor fit] | 
14 | CCCCN(CC)C(=S)Nc1ccc2nc(N3CCN(C)CC3)cc(C)c2c1 | 7.08 µM [falling, partial curve, poor fit] | 
15 | CC(=O)NC1C(=O)N(Cc2ccccc2)c2ccc(Br)cc21 (configuration not stated) | 35.5 µM [falling, partial curve, poor fit] | 
16 | CC(C)c1nnc(NC(=O)CSc2ccccc2)s1 | 2.91 µM [rising, partial curve, poor fit] | 
17 | COc1ccc(CC(=O)Nc2nnc(C)s2)cc1 | 1.64 µM [rising, single point] | 
18 | N#CC(C#N)=CC1=C2OC(c3ccccc3)=CC(c3ccccc3)=C2CCC1 | 1.84 µM [rising, partial curve, poor fit] | 
19 | COc1cc2c(cc1OC)C(=S)NC(C)(C)C2 | 22.4 µM [rising, partial curve, poor fit] | 32.6 µM [falling, partial curve, poor fit]
20 | COc1ccc2sc(-c3ccc(N(C)C)cc3)c(-c3ccc4cc[nH]c4c3)c2c1 | 0.731 µM [rising, partial curve, poor fit] | 
21 | CSc1ccccc1OCc1cc(C(=O)NCCCn2nc(C)cc2C)no1 | 6.31 µM [falling, partial curve, poor fit] | 

Row | Compound | AC50 [1] | AC50 [2]
22 | COc1ccc(NC(=S)N2CCC(NC(=O)c3cccc(C)c3)CC2)cc1 | 2.82 µM [rising, partial curve, poor fit] | 
23 | CCCc1ncc(CN2CCCC(C(=O)Nc3ccc(-c4cccc(OC)c4)cc3)C2)cn1 (configuration not stated) | 10 µM [falling, partial curve] | 
24 | C/C(CCc1ccccc1)=N\NC(=O)COc1ccccc1C | 11.2 µM [rising, partial curve] | 
25 | O=C(NNC(=O)C1COc2ccccc2O1)c1ccccc1O (configuration not stated) | 3.66 µM [falling, full curve] | 
26 | CSc1ccc(/C=N\Nc2nncn2N)cc1 | 35.5 µM [falling, single point] | 
27 | Cc1ccccc1CN1C(=O)c2ccccc2Sc2ccc(C(=O)O)cc21 | 25.1 µM [falling, single point] | 
28 | COC(=O)N1N=C(c2ccc(Br)cc2)CC1(O)C(F)(F)F (configuration not stated) | 2.06 µM [rising, full curve] | 
29 | O=S(=O)(NCCc1ccccc1)c1cccc2cccnc12 | 5.62 µM [falling, single point] | 
30 | Cc1ccc(C(=O)OC2OC(=O)C(Cl)=C2N2CCOCC2)cc1 (configuration not stated) | 0.461 µM [rising, partial curve, poor fit] | 
31 | Cc1csc(NC(=O)CNS(=O)(=O)c2cccs2)n1 | 5.01 µM [falling, partial curve, poor fit] | 
32 | CCC(C)/C=C/C1=CC2=C(Cl)C(=O)C3(C)OC(=O)C(C(=O)C(C)C(C)O)C3C2=CO1 (configuration not stated) | 5.62 µM [rising, partial curve, poor fit] | 
33 | O=C(Nc1ccc(-n2cccn2)cc1)C1CCCCN1Cc1cccc2cccnc12 (configuration not stated) | 3.55 µM [rising, partial curve, poor fit] | 
34 | COC(=O)C1CC23C=CCN4CCC5(c6ccccc6NC15C2C)C43 (configuration not stated) | 8.91 µM [rising, partial curve, poor fit] | 7.08 µM [falling, full curve]
35 | CCC(=O)Nc1ccccc1C(=O)OCc1ccc(C(=O)c2ccccc2)cc1 | 35.5 µM [falling, single point] | 
36 | O=S1(=O)C[C@@H](N2CCOCC2)[C@H](N2CCOCC2)C1 | 0.708 µM [rising, full curve, poor fit] | 
37 | CC1=NN(c2ccccc2)C(=O)C1C(=O)c1ccc(Cl)cc1 (configuration not stated) | 35.5 µM [falling, single point] | 
38 | COc1cc(OC)c2c(-c3cccc(-c4cccc(C)c4)c3)cc(=O)oc2c1 | 29.1 µM [rising, single point] | 18.4 µM [falling, single point]
39 | Cc1ccc(N/N=C(\C#N)C(N)=S)c(C)c1 | 5.17 µM [falling, single point] | 
40 | CC(C)C1CC(C(F)(F)F)n2nc(C(=O)O)cc2N1 (configuration not stated) | 5.62 µM [rising, single point] | 
41 | CCC(C)C1Nc2ccc(C(=O)NCc3ccc4c(c3)OCO4)cc2NC1=O (configuration not stated) | 12.6 µM [falling, partial curve] | 
42 | O=C(CSc1nc(-c2ccccc2)ns1)N1CCOCC1 | 35.5 µM [rising, partial curve, poor fit] | 

Row | Compound | AC50 [1] | AC50 [2]
43 | CCc1ccc(NC(=O)c2cnc(N3CCN(c4ccccn4)CC3)c3ccccc23)cc1 | 3.55 µM [falling, full curve] | 
44 | COc1ccc(C)cc1NC(=O)CNCc1cccs1 | 11.2 µM [falling, partial curve, poor fit] | 
45 | Cc1[nH]n(-c2ccccc2)c(=O)c1/C=N/NC(=O)c1ccc(O)cc1O | 2.82 µM [falling, full curve] | 
46 | CC1CN(CCOc2ccccc2-c2ccccc2)CC(C)O1 (configuration not stated) | 1.46 µM [rising, full curve] | 
47 | O=C(c1ccc2c(c1)OCCCO2)c1cccs1 | 22.4 µM [falling, single point] | 
48 | CCN1CCN(c2ncc(C(=O)Nc3cc(Cl)ccc3OC)c3ccccc23)CC1 | 1.3 µM [falling, full curve, poor fit] | 
49 | Cc1cc(C)nc(N/N=C/c2cc(Br)ccc2O)n1 | 35.5 µM [falling, single point] | 
50 | CCC1(CC)NC(=O)N(CC(=O)Nc2sc3c(c2C(N)=O)CCC3)C1=O | 4.61 µM [rising, single point] | 
51 | O=C(c1ccc2c3c(cccc13)CC2)C1CCCN(Cc2ccc(OCCO)cc2)C1 (configuration not stated) | 35.5 µM [falling, single point] | 
52 | CCOc1ccccc1N1CCN(CC(=O)Nc2ccccc2C(=O)NC2CC2)CC1 | 0.58 µM [rising, full curve, poor fit] | 
53 | Oc1c(C=C2N=c3ccccc3=N2)sc(=S)n1-c1ccc2ccccc2c1 | 11.2 µM [falling, single point] | 
54 | COc1cccc(CNC(=O)c2ccc3nc[nH]c3c2)c1 | 35.5 µM [falling, single point] | 
55 | COc1ccc(C)cc1NC(=O)CCCN1C(=O)C(c2ccccc2)Oc2cccnc21 (configuration not stated) | 22.4 µM [falling, single point] | 
56 | COc1ccc(N2CCN(C(=O)CN3c4cccc5cccc(c45)S3(=O)=O)CC2)cc1 | 0.92 µM [rising, full curve, poor fit] | 
57 | Cc1ccc(C(=O)N/C(=C/c2ccco2)C(=O)Nc2cccc(C)c2)cc1 | 32.6 µM [falling, single point] | 
58 | O/N=C\c1ccccc1Oc1ccc(F)cc1 | 35.5 µM [rising, single point] | 
59 | O=C(CCl)Nc1cccc2ncccc12 | 25.9 µM [falling, partial curve, poor fit] | 
60 | Cc1ccc(NC(=O)CCSc2nc(C)cc(C)n2)cc1 | 20.6 µM [rising, single point] | 
61 | COc1ccc(Cl)cc1NC(=O)N1CCC(C)CC1 | 17.8 µM [rising, single point] | 
62 | O=C(NCc1ccco1)c1c(F)cccc1Cl | 23.1 µM [rising, partial curve, poor fit] | 
